Test results: publication PMC9959676 (Molecules, 2023)

Assay: DPPH free radical scavenging assay
Settings: mean absorbance at 517 nm, triplicate; 1.0 mL sample 0.5 mg/mL + 2 mL DPPH 0.2 mg/mL, 30 min
Method: The DPPH assay was carried out to estimate the antioxidant potential among all the compounds [29]. Then, 2 mL (0.2 mg/mL in methyl alcohol) of DPPH was mixed with 1.0 mL (0.5 mg/mL in methyl alcohol) of the sample solution in a test tube. All the reaction tubes were covered with aluminum foil and kept aside for 30 min to complete the reaction. The activity was carried out in a dark room. […] A UV-visible spectrophotometer was employed to observe a reduction in the concentration of free radicals at 517 nm. The absorbance of the control (1.0 mL methanol + 2 mL DPPH solution) was also measured. All samples were evaluated in a triplicate manner, and the mean results were recorded. The standard antioxidant (ascorbic acid) was evaluated and set as a reference/standard. The percentage of inhibition (%) was calculated using the following formula in terms of scavenging activity(S):S (%) = [(Ab − Aa)/Ab] × 100(1) where Ab = Absorbance of control; and Aa = Absorbance of the test sample

Work on `CCCCC(=O)N(Cc1ccc(-c2ccccc2-c2nn[nH]n2)cc1)C(C(=O)Oc1ccc(C=O)cc1)C(C)C` (stereo not drawn) [AV6, 4-formylphenyl2-(N-((2′-(2H-tetrazol-5-yl)-[1, 1′-biphenyl]-4yl)methyl)pentanamido)-3methyl butanoate] yielded a Mean of 0.613.
In the case of `CCCCC(=O)N(Cc1ccc(-c2ccccc2-c2nn[nH]n2)cc1)C(C(=O)Oc1cc(C)ccc1C(C)C)C(C)C` (stereo not drawn) [AV8, 2-isopropyl-5-methylphenyl 2-(N-((2′-(2H-tetrazol-5yl)-[1, 1′-biphenyl]-4 yl)methyl)pentanamido)-3methyl butanoate], the Mean is reported as 0.120.
Work on `O=C1O[C@H]([C@@H](O)CO)C(O)=C1O` [Ascorbic acid, reference compound] yielded a Mean of 0.093.
Work on `CCCCC(=O)N(Cc1ccc(-c2ccccc2-c2nn[nH]n2)cc1)C(C(=O)Oc1ccc(C=O)cc1OC)C(C)C` (stereo not drawn) [AV2, 4-formyl-2-methoxyphenyl 2(N-((2′-(2H-tetrazole-5-yl)-[1,1′-biphenyl]-4yl)methyl)pentanamido)-3-methyl butanoate] yielded a Mean of 0.102.
For `CCCCC(=O)N(Cc1ccc(-c2ccccc2-c2nn[nH]n2)cc1)C(C(=O)Oc1cccc2ccccc12)C(C)C` (stereo not drawn) [AV9, naphthalen-1-yl 2-(N-((2′-(2H-tetrazol-5-yl)-[1,1′-biphenyl]-4 yl)methyl)pentanamido)-3methyl butanoate], the Mean was 0.419.
For `CCCCC(=O)N(Cc1ccc(-c2ccccc2-c2nn[nH]n2)cc1)C(C(=O)O)C(C)C` (stereo not drawn) [AV0, 2-(N-((2′-(2H-tetrazole-5-yl)-[1,1′-biphenyl]-4yl)-methyl)-pentanamido)-3-methyl butanoic acid, reference compound], the Mean was 0.919.
With `CCCCC(=O)N(Cc1ccc(-c2ccccc2-c2nn[nH]n2)cc1)C(C(=O)Oc1ccc(Cl)cc1Cl)C(C)C` (stereo not drawn) [AV5, 2,4-dichlorophenyl 2-(N-((2′-(2H-tetrazol-5yl)-[1,1′-biphenyl]-4 yl)methyl)pentanamido)-3methyl butanoate] the Mean was 0.696.
For `CCCCC(=O)N(Cc1ccc(-c2ccccc2-c2nn[nH]n2)cc1)C(C(=O)OC(C(=O)c1ccccc1)c1ccccc1)C(C)C` (stereo not drawn) [AV1, 2-oxo-1,2-diphenylethyl 2-(N-((2′-(2H-tetrazol-5yl)-[1,1′-biphenyl]-4-yl)methyl)pentanamido)-3methyl butanoate], the Mean was 0.676.
In the case of `CCCCC(=O)N(Cc1ccc(-c2ccccc2-c2nn[nH]n2)cc1)C(C(=O)Oc1ccc2ccccc2c1)C(C)C` (stereo not drawn) [AV10, naphthalen-2-yl 2-(N-((2′-(2H-tetrazol-5-yl)-[1,1′-biphenyl]-4 yl)methyl)pentanamido)-3methyl butanoate], the Mean is reported as 0.145.
